In patent US10080784B2, “Enhanced therapeutic usage of a purine nucleoside phosphorylase or nucleoside hydrolase prodrug” (SOUTHERN RESEARCH INSTITUTE, priority 2011, dated 2018):
“Also recorded” adds a separate entry of the source. At least one structure is not confirmed: it was looked up by name or label, or the drawing left a doubt.

By UniProt entry, the sequences of proteins in these tests, tags left out. Where a name states a change or a piece, a line headed by the entry shows the natural chain unless it says otherwise.
UniProt P0ABP8: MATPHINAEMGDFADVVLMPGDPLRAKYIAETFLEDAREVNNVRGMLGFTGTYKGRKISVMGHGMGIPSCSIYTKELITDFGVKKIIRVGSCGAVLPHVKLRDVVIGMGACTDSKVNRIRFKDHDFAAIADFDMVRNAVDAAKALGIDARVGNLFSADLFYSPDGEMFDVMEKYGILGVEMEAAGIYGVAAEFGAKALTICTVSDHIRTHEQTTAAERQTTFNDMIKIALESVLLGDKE

Experiments:
E. coli PNP = target: T1, E. coli PNP (Escherichia coli, UniProt P0ABP8); experiment: Measurement of E. coli PNP activity in tumor extracts; type: biochemical; settings: low dose of F-araAMP IT, 10% PNP D54 tumors; 14,300 units at time of treatment
T1 construct: expressed in transfected cells; host or cells: D54MG human glioma cells, either stably transduced by lentivirus or transduced in vivo with adenoviral vector Ad/PNP, grown as xenografts in nude mice; Crude tumor extracts were assayed
Experimental: The proportion of lentiviral transduced cells in a tumor mass is verified by measuring E. coli PNP activity in representative cancers removed from mice on the first day of drug treatment. Crude extracts are prepared as described previously (Parker et al. Human Gene Therapy 1997; 8: 1637-1644) after tumor excision from the flanks of mice. […] The formation of MeP is monitored using reverse phase HPLC. By convention, one unit of PNP activity is defined as the amount of extract necessary to cleave 1 nmole of MeP-dR per mg protein in a 1 hour period.

[1] = system: D54 tumors that express E. coli PNP in 5% of the cells; experiment: Systemic intraperitoneal F-araAMP on D54 tumors expressing E. coli PNP in 5% of cells; type: in vivo, nude mice; settings: IP F-araAMP 100 mg/kg given 15 times, 167 mg/kg given 9 times, or 250 mg/kg given 3 times
Experimental: Intraperitoneal treatment with F-araAMP (250 mg/kg once per day for 3 consecutive days; 167 mg/kg 3 times per day for 3 consecutive days; 100 mg/kg 5 times a day for 3 consecutive days; or vehicle control 5 times a day×3 days) began on day 17 when tumors are approximately 250 mg. […] (FIG. 1)

[2] = system: parental D54 tumors (no E. coli PNP expression); experiment: Intratumoral injection into parental D54 tumors (no E. coli PNP expression)
Experimental: Parental and E. coli PNP expressing D54MG (human glioma) tumor cells (2×10^7 cells) are injected subcutaneously into the flanks of nude mice (nu/nu) purchased from Charles River Laboratories (Wilmington, Mass.). D54 tumor cells stably transduced with E. coli PNP are prepared as described previously (Parker et al. Cancer Gene Therapy 2011 June; 18(6):390-8). Tumors are measured with calipers and an estimate of the weight calculated using the equation, (length×width^2)/2=mm^3, and converted to mg assuming unit density. […] Each treatment arm of each group contained at least 6 mice. Mice are monitored daily for weight loss and twice weekly for tumor dimensions. T-C (tumor growth delay) is taken as the difference in days to 2 doublings between drug-treated and saline-treated groups. The time to the evaluation point for each animal (2 doublings) is used as the end point in a Student's t-test, the Mann-Whitney rank sum test, or a life table analysis in order to statistically compare growth data between treatment groups. All procedures are performed in accordance with a protocol approved by the IACUC of Southern Research Institute. F-araAMP is obtained from Schering A.-G. (Berlin, Germany). In this and subsequent examples, F-Ade is obtained from General Intermediates of Canada, Inc. (Edmonton, Alberta, Canada). […]

[3] = system: D54 tumors in which 10% of cells express E. coli PNP; experiment: F-araAMP plus radiation on D54 tumors in which 10% of cells express E. coli PNP
Experimental: Locally advanced solid tumors often become resistant to radiation therapy. As a test of adjuvant E. coli PNP in this setting, F-araAMP injection together with external beam radiation is investigated.
D54 tumor cells in which 10% of cells expressed E. coli PNP are injected sc into the flanks of nude mice. The tumors are treated with radiation, F-araAMP, or F-araAMP plus radiation. In two treatment groups, tumors are injected once per day for 3 consecutive days with 150 μl of either saline or 3 mg F-araAMP dissolved in saline. In two other treatment groups radiation (4 Gy) is administered once per day for 3 consecutive days 3 hours after injection of 150 μl of either saline (filled squares) or 3 mg F-araAMP dissolved in saline (open squares).

[4] = system: D54 tumors in which 10% of the cells express E. coli PNP; experiment: Intratumoral injection into D54 tumors in which 10% of cells express E. coli PNP; type: in vivo, nude mice

Question: `Nc1nc(F)nc2c1ncn2[C@@H]1O[C@H](COP(=O)(O)O)[C@@H](O)[C@@H]1O` [F-araAMP, fludarabine phosphate] was tested. Which “PNP activity in the tumors 45 days after treatment” value (E. coli PNP) did it give?
Answer: 1,250 units

Question: What about the Antitumor outcome [1] of the same compound?
Answer: complete regressions of all tumors and cures of all mice

Question: And the Antitumor activity ([2]; 6 or 24 mg F-araAMP in DMSO IT x3)?
Answer: did not result in antitumor activity

Question: What about the “Effect on tumor growth” value ([2]; IT F-araAMP, FIGS. 2B, 2D and 3) of the same compound?
Answer: no effect on tumor growth

Question: What about the “Antitumor activity of combination with radiation therapy” value ([3]; 3 mg F-araAMP x3 plus radiation, much greater than either treatment alone) of the same compound?
Answer: pronounced antitumor activity

Question: What about the “IT injection (FIG. 8A) compared to systemic IP injection (FIG. 8B)” value ([3]; F-araAMP plus radiation) of the same compound?
Answer: superior for IT injection

Question: And the Antitumor effect ([4]; 6 mg F-araAMP in DMSO IT x3, single course)?
Answer: robust tumor regressions and a prolonged antitumor effect

Question: What about the Antitumor effect ([4]; 1.5 or 3 mg F-araAMP in saline IT x3, FIG. 2A) of the same compound?
Answer: strong antitumor effect; also recorded: tumor suppression but no tumor free-survivors

Question: What about the “Antitumor activity, three or six IT injections” value ([4]; FIG. 4, six injections better than three) of the same compound?
Answer: very good antitumor activity

Question: And the “Efficacy of F-araAMP compared with F-dAdo” value ([4]; IT injection 3 times, FIGS. 6A and 6B)?
Answer: Better results
